Taken from: PubChem BioAssay AID686938 (Drosophila RNAi Screening Center, 2013)
Purpose: 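Looking for CRAC channel components and the factors controlling them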 (primary screen). System: Drosophila S2R+ cells. Reagents: long dsRNA against Drosophila genes, about 0.25 µg dsRNA per well, roughly 10,000 cells. Duration: 5 days of knock-down before the calcium assay. Conditions: thapsigargin (SERCA pump blocker) to empty calcium stores; entry signal taken 4 min after adding it. Read-out: 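Duplicate raw fluo-4 intensities per well from a plate reader, at rest and four minutes after thapsigargin emptied calcium stores; entry-to-rest ratio filled for only some wells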. Scale: calcium entry signal: higher = stronger calcium signal after store depletion; resting calcium signal: higher = higher resting calcium signal. Units: calcium entry signal in fluorescence units; resting calcium signal in fluorescence units. Call rule: 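Called when the plate z-score of the entry-to-rest ratio, mean of duplicates, falls below −3; wells with low overall dye signal (Fmax z below −2) or more than five off-targets excluded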. Meaning of the calls: active = strongly reduced calcium entry; inactive = no strong reduction.
The screen tested about 23,000 reagents; shown is an unselected part of those with a known target gene and a result. Of all reagents, 75 (0.33%) were called active. 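Raw plate signals without normalisation; calls rest on plate z-scores that were not deposited; ratio present for only 364 wells.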 Not given: the dose of the treatment.

With Fbxo42 (F-box protein 42) [DRSC04529], what does the deposit list?
calcium entry signal, replicate 1: 3.71e7; resting calcium signal, replicate 1: 1.74e7; Call: inactive

How did the screen score CG1946 [DRSC06804]?
calcium entry signal, replicate 1: 4.01e7; calcium entry signal, replicate 2: 4.55e7; resting calcium signal, replicate 1: 1.79e7; resting calcium signal, replicate 2: 1.71e7; Call: inactive

For Rai1 (Rat1 Interacting Protein 1) [DRSC20157], what was measured?
calcium entry signal, replicate 1: 3.58e7; calcium entry signal, replicate 2: 3.47e7; resting calcium signal, replicate 1: 1.88e7; resting calcium signal, replicate 2: 1.64e7; Call: inactive

With CG33159 [DRSC08199], what was measured?
calcium entry signal, replicate 1: 4.32e7; calcium entry signal, replicate 2: 3.23e7; resting calcium signal, replicate 1: 2.04e7; resting calcium signal, replicate 2: 1.69e7; Call: inactive

How did the screen score CG42262 (retired record) [DRSC17628]?
calcium entry signal, replicate 1: 2.59e7; calcium entry signal, replicate 2: 3.79e7; resting calcium signal, replicate 1: 1.26e7; resting calcium signal, replicate 2: 1.68e7; Call: inactive

How did the screen score CG42262 (retired record) [DRSC17974]?
calcium entry signal, replicate 1: 3.43e7; calcium entry signal, replicate 2: 4.59e7; resting calcium signal, replicate 1: 1.67e7; resting calcium signal, replicate 2: 2.01e7; Call: inactive

For mop (myopic) [DRSC11065], what does the deposit list?
calcium entry signal, replicate 1: 2.76e7; calcium entry signal, replicate 2: 4.40e7; resting calcium signal, replicate 1: 1.46e7; resting calcium signal, replicate 2: 3.06e7; Call: inactive

For CG7275 [DRSC10796], what does the deposit list?
calcium entry signal, replicate 1: 3.23e7; calcium entry signal, replicate 2: 2.60e7; resting calcium signal, replicate 1: 2.74e7; resting calcium signal, replicate 2: 1.52e7; Call: inactive

With Gmer (GDP-4-keto-6-deoxy-D-mannose 3,5-epimerase/4-reductase) [DRSC04376], what was measured?
calcium entry signal, replicate 1: 3.99e7; resting calcium signal, replicate 1: 2.00e7; Call: inactive

With Gle1 (Gle1 RNA export mediator) [DRSC06485], what does the deposit list?
calcium entry signal, replicate 1: 4.39e7; calcium entry signal, replicate 2: 4.81e7; resting calcium signal, replicate 1: 1.77e7; resting calcium signal, replicate 2: 2.11e7; Call: inactive

What is on record for Grip128 [DRSC20167]?
calcium entry signal, replicate 1: 2.34e7; calcium entry signal, replicate 2: 2.87e7; resting calcium signal, replicate 1: 1.15e7; resting calcium signal, replicate 2: 1.33e7; Call: inactive

What did the screen give for SmydA-5 (SET and MYND domain containing, arthropod-specific, member 5) [DRSC04867]?
calcium entry signal, replicate 1: 4.44e7; calcium entry signal, replicate 2: 4.31e7; resting calcium signal, replicate 1: 2.20e7; resting calcium signal, replicate 2: 2.17e7; Call: inactive
